Assay results from the supplement of paper PMC7024190.
The other results are listed elsewhere or left out. Repeats in this data set agree poorly, so a single value says little.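 A first-round screen of about ten thousand compounds sought those raising reporter output, using human embryonic kidney cells briefly transfected with a plasmid carrying a Renilla luciferase gene driven by the HSV-TK promoter.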

test system: HEK 293FT; assay: log relative Renilla luciferase luminescence (reporter expression vs reference, reference not stated) (log (base not stated)); higher = higher recombinant reporter expression; conditions: 10 µM; time after transfection 48 h
Protocol: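 HEK 293FT cells transiently transfected with pRL-TK (Renilla luciferase) were treated with compounds at 10 uM and luminescence was read about 42 h later. Values are log relative Renilla luminescence (log base and reference not stated). Single-pass screen; 2080 natural products library.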

Going from CC(C)=CCc1c(O)cc(O)c2c(=O)c3cccc(O)c3oc12 [1,3,5-Trihydroxy-4-prenylxanthone] to C[C@H]1O[C@@H](Oc2c(-c3cc(O)c(O)c(O)c3)oc3cc(O)cc(O)c3c2=O)[C@@H](O)[C@@H](O)[C@@H]1O [Myricitrin], the log falls from -0.0849 to -0.51.

CC1(C)C(=O)CC[C@]2(C)[C@@H]1CC[C@@]13C[C@@H](CC[C@H]12)[C@@H](C(=O)O)C3 (single isomer, unassigned; ent-3) [ent-3-Oxokauran-17-oic acid] and C[C@H]1[C@H](C)CC[C@]2(C(=O)O)CC[C@]3(C)C(=CC[C@@H]4[C@@]5(C)C[C@@H](O)[C@H](O)C(C)(C)[C@@H]5CC[C@]43C)[C@H]12 [Corosolic acid] are within 0.2 log units of each other in log: 0.0076 for the first, -0.179 for the second.

COc1c(-c2ccc(OC(C)=O)c(OC(C)=O)c2)oc2cc(OC(C)=O)cc(OC(C)=O)c2c1=O [3-O-Methylquercetin tetraacetate] and COc1cc2oc(-c3ccc(O)cc3)c(OC)c(=O)c2c(O)c1OC [Penduletin] are within 0.2 log units of each other in log: -0.14 for the first, -0.106 for the second.

COc1cc2ccc(=O)oc2c(OC)c1OC [6,7,8-Trimethoxycoumarin] and COc1cc2c(=O)oc3c(OC)c(O)cc4c(=O)oc(c1OC)c2c34 [2,3,8-Tri-O-methylellagic acid] are within 0.2 log units of each other in log: -0.0248 for the first, 0.0433 for the second.

First: C=C1C(=O)[C@]23C[C@H]1C[C@H](OC(C)=O)[C@H]2[C@]1(C)[C@@H](OC(C)=O)C[C@H](O)C(C)(C)[C@H]1C(=O)[C@@H]3OC(C)=O [Adenanthin]
Second: C[C@@H]1CC[C@]2(C(=O)O)CC[C@]3(C)C(=CC[C@@H]4[C@@]5(C)C[C@@H](O)[C@H](O)C(C)(C)[C@@H]5CC[C@]43C)[C@@H]2[C@]1(C)O [Tormentic acid]
The log of the first is lower: -1.38 for the first, -0.129 for the second.

COC(=O)c1ccc2[nH]c3ccccc3c2c1 [Methyl 3-carbazolecarboxylate] and COc1ccc2ccc(=O)oc2c1C(OC(C)=O)C(=O)C(C)C (stereo unspecified) [Hainanmurpanin] are within 0.2 log units of each other in log: -0.071 for the first, -0.157 for the second.

Compared with C/C(=C\CO)CC/C=C(\C)C(=O)O [Foliamenthoic acid], C=C(C(=O)O)[C@H]1C=C2[C@@H](C)CCC[C@]2(C)CC1 [Pterodontic acid] is lower in log: -0.0147 for the first, -0.602 for the second.

Compared with C[C@H]1[C@H](C)CC[C@]2(C(=O)O)CC[C@]3(C)C(=CC[C@@H]4[C@@]5(C)C[C@@H](O)[C@@H](O)[C@@](C)(CO)[C@@H]5CC[C@]43C)[C@H]12 [Esculentic acid], C=C(CC[C@@H](C)[C@H]1CC[C@@]2(C)[C@@H]3CC[C@H]4[C@](C)(C(=O)O)[C@@H](O)CC[C@@]45C[C@@]35CC[C@]12C)C(C)C [1-Dehydroxy-23-deoxojessic acid] is higher in log: -0.238 for the first, -0.0329 for the second.

Compared with C[C@H](CC[C@@H]1OC(C)(C)OC1(C)C)[C@H]1CC[C@@]2(C)[C@@H]3CC[C@H]4C(C)(C)[C@@H](O)CC[C@@]45C[C@@]35CC[C@]12C [(24S)-Cycloartane-3,24,25-triol 24,25-acetonide], CC1(C)O[C@H]2CC(=O)OC[C@@]23C1=C(O)C(=O)[C@]1(C)[C@@H]3CC[C@@]2(C)[C@H](c3ccoc3)OC(=O)[C@H]3O[C@]321 [Evodol] is higher in log: -0.462 for the first, 0.0179 for the second.

Compared with O=C(O)/C=C/c1ccc(O)cc1 [trans-4-Hydroxycinnamic acid], C=C(C)C(O)COc1c2occc2cc2ccc(=O)oc12 (stereo unspecified) [Isogosferol] is lower in log: 0.107 for the first, -0.583 for the second.

First: COc1ccc(C[C@H]2COC(=O)[C@@H]2Cc2ccc(OC)c(OC)c2)cc1OC [2,3-Bis(3,4-dimethoxybenzyl)butyrolactone]
Second: CC(C)(O)[C@@H]1Cc2c(cc3oc(CO[C@@H]4O[C@H](CO)[C@@H](O)[C@H](O)[C@H]4O)cc(=O)c3c2O)O1 [prim-O-Glucosylangelicain]
The log of the first is lower: -0.217 for the first, 0.0208 for the second.

Going from C[C@@H]1CC[C@@]2(C)C(C(=O)O)=CCC[C@@H]2[C@]1(C)CCc1ccoc1 [Hardwickiic acid] to Cc1cc2c(cc1O)C13CCCC(C)(C)C1CC2OC3 (stereo unspecified) [Przewalskin], the log falls from 0.132 to -0.179.

First: C=C1CC[C@H]2C(=C)CC[C@@H]3[C@H](OC(=O)[C@H]3CS(=O)(=O)O)[C@@H]12 [Sulfocostunolide A]
Second: C=C1CC[C@H]2C(C)(C)CCC[C@]2(C)[C@H]1/C=C/C1=CCOC1=O [Villosin]
The log of the first is lower: -0.0729 for the first, 0.163 for the second.
